Laboratory results reported in publication PMC9436328.
Results are given in words; binding and its absence hold for the method and conditions named. For some assays here: A result given as binding can be weak or reduced; the word gives no strength.

Columns and labels:
[1] = target: T1, Pi04089 (Phytophthora infestans) (UniProt D0N0I9); assay: two-hybrid
T1 sequence: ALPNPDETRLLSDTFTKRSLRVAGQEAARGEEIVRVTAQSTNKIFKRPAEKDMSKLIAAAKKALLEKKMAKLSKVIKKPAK

[2] = target: HaRxL44 (Hyaloperonospora arabidopsidis); assay: two-hybrid

AT5G15270, RNA binding KH domain–containing protein (Arabidopsis thaliana)
binding [1]: no binding

B1: Arabidopsis mediator subunit med19a (protein, UniProt Q9FMP0 1-221)
chain: MEPERLKFGGPRELCGAADLISQFKLVQHHEFFCKKSLPVSLSDSHYLHNVVGDTEIRKGEGMQLDQLIESISQSRETNIRIQPFDIDELQESFQLNDMTPVELPPAEKGAPTIPSKSKSESKDRDRKHKKHKDRDKDKDREHKKHKHKHKDRSKDKDKDKDRDRKKDKNGHHDSGDHSKKHHDKKRKHDGDEDLNDVQRHKKNKHKSSKLDEVGAIRVAG
binding [2]: binds
